PubChem BioAssay AID1259405 – NCATS, 2018

Aim: 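Silenced genes that increase secreted GFP made by CHO cells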 (primary screen)
Cell system: Chinese hamster CHO-K1 ovary cells with stable secreted eGFP expression
Reagent: single siRNA against mouse genes, 0.8 pmol siRNA per well (2 µl of 400 nM stock)
Duration: 3 days
Measurement: 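Percent of the per-plate non-targeting control median for intracellular GFP per well by laser scanning cytometry and for cell viability by ATP luminescence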
Reading the numbers: GFP, % of control: higher = more GFP per well, higher productivity; viability (ATP), % of control: higher = more viable cells (more ATP)
Active means: 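a knock-down is called active if GFP reaches 120% or more of non-targeting control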
The deposit covers about 50,000 reagents; below is an unselected part. About 4,000 of them (8%) count as active. 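Mouse siRNA library applied to hamster cells; one well for each siRNA.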 Entries without a mark were called inactive.

Mpc1 [SID363547030]: GFP, % of control = 77.6; viability (ATP), % of control = 74.8
Mpc1 [SID363549842]: GFP, % of control = 71.2; viability (ATP), % of control = 76.5
Mpc1 [SID363587896]: GFP, % of control = 95.4; viability (ATP), % of control = 148
Pkia (protein kinase inhibitor, alpha) [SID363573288]: GFP, % of control = 63.1; viability (ATP), % of control = 76.1
Pkia (protein kinase inhibitor, alpha) [SID363588527]: GFP, % of control = 115; viability (ATP), % of control = 89.3
Mad1l1 (MAD1 mitotic arrest deficient 1-like 1) [SID363562280]: GFP, % of control = 262 (active); viability (ATP), % of control = 109
Mad1l1 (MAD1 mitotic arrest deficient 1-like 1) [SID363567418]: GFP, % of control = 88.3; viability (ATP), % of control = 82
Mad1l1 (MAD1 mitotic arrest deficient 1-like 1) [SID363584775]: GFP, % of control = 71.4; viability (ATP), % of control = 59.7
Gpd1l (glycerol-3-phosphate dehydrogenase 1-like) [SID363575031]: GFP, % of control = 78; viability (ATP), % of control = 94.1
Gpd1l (glycerol-3-phosphate dehydrogenase 1-like) [SID363580663]: GFP, % of control = 41.2; viability (ATP), % of control = 40.3
Gpd1l (glycerol-3-phosphate dehydrogenase 1-like) [SID363582775]: GFP, % of control = 84.5; viability (ATP), % of control = 84.6
Dusp12 (dual specificity phosphatase 12) [SID363575041]: GFP, % of control = 91.9; viability (ATP), % of control = 84.9
Dusp12 (dual specificity phosphatase 12) [SID363580673]: GFP, % of control = 66.9; viability (ATP), % of control = 68.2
Dusp12 (dual specificity phosphatase 12) [SID363582785]: GFP, % of control = 78.2; viability (ATP), % of control = 80
Pi4k2b (phosphatidylinositol 4-kinase type 2 beta) [SID363570902]: GFP, % of control = 72.7; viability (ATP), % of control = 46.5
Atp6v1e2 (ATPase, H+ transporting, lysosomal V1 subunit E2) [SID363545112]: GFP, % of control = 48.9; viability (ATP), % of control = 70.3
Atp6v1e2 (ATPase, H+ transporting, lysosomal V1 subunit E2) [SID363548625]: GFP, % of control = 65.5; viability (ATP), % of control = 62.3
Atp6v1e2 (ATPase, H+ transporting, lysosomal V1 subunit E2) [SID363562431]: GFP, % of control = 109; viability (ATP), % of control = 34.7

Reprinted from the listing, 2 entries:
Gpd1l (glycerol-3-phosphate dehydrogenase 1-like) [SID363580663]: GFP, % of control = 41.2; viability (ATP), % of control = 40.3
Gpd1l (glycerol-3-phosphate dehydrogenase 1-like) [SID363582775]: GFP, % of control = 84.5; viability (ATP), % of control = 84.6
